Results taken from PMC11015022.

By UniProt entry, the sequences of proteins in these tests, tags left out.
UniProt P63017: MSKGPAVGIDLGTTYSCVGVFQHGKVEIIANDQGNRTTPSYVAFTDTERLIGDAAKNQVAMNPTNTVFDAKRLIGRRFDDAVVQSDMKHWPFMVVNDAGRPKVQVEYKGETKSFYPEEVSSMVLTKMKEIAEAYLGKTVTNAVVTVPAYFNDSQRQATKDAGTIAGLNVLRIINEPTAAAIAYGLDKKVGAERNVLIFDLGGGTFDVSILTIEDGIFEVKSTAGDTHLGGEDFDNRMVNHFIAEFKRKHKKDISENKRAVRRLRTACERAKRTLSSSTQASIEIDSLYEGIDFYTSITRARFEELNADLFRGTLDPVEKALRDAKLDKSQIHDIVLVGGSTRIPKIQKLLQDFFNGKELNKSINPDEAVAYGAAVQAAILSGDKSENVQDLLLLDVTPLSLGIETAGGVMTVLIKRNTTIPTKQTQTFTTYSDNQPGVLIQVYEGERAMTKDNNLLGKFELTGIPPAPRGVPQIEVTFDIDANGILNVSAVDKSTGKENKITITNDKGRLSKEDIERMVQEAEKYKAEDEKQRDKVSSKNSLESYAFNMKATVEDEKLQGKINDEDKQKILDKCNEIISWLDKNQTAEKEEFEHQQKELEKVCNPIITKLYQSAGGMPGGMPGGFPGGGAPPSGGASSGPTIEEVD
UniProt P51807: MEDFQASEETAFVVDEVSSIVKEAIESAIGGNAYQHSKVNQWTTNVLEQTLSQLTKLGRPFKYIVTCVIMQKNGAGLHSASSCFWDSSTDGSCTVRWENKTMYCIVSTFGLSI
UniProt Q99104: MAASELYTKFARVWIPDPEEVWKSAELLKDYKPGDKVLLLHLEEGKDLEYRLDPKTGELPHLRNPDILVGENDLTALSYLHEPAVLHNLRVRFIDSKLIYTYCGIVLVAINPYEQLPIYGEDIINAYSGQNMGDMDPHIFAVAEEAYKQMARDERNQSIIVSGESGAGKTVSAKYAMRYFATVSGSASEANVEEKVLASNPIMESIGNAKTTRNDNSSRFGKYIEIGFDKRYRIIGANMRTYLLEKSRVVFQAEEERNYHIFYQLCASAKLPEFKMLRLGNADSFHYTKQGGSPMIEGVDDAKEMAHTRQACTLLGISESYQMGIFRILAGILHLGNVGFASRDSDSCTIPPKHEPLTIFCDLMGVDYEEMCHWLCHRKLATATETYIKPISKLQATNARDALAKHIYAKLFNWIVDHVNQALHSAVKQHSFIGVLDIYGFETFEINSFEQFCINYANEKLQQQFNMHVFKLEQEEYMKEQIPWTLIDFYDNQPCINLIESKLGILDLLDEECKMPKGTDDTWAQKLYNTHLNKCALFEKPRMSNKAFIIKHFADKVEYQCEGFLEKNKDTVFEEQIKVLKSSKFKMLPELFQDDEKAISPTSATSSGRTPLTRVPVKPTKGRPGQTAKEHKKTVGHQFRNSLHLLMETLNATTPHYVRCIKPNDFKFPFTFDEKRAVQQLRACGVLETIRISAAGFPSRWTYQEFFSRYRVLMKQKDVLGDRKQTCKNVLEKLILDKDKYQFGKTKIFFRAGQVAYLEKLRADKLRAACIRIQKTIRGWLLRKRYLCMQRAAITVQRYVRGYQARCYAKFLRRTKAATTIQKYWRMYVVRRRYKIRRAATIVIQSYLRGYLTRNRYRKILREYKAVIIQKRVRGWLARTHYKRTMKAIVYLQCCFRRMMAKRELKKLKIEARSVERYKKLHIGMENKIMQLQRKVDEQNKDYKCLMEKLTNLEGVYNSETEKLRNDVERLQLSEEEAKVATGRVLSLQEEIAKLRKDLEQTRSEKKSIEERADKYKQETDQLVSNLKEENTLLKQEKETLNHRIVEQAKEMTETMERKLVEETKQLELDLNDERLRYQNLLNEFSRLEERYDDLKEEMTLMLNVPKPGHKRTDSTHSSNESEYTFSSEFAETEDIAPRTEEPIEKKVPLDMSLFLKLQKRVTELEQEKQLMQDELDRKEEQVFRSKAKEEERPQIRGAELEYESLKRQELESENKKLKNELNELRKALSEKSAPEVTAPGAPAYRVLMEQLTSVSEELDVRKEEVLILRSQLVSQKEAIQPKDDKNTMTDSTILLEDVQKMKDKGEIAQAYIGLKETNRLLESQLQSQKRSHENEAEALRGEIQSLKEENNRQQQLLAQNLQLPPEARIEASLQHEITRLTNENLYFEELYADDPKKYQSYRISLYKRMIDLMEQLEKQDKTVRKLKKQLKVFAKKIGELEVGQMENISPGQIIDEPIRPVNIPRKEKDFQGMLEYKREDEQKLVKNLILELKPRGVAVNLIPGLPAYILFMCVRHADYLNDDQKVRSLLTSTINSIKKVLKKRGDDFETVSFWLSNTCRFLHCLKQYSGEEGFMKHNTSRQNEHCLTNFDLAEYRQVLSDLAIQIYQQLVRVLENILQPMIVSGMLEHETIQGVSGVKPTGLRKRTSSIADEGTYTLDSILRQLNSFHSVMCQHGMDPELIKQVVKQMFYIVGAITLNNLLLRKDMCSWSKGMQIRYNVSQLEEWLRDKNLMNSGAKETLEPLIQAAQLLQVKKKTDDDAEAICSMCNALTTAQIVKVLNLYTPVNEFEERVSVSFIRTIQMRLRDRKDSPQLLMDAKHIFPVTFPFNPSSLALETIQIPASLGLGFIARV

What was measured:
[1] = target: HSPA8 (heat shock cognate 70 kDa protein) (mouse (endogenous in mouse testis)) (UniProt P63017); experiment: affinity purification with mass spectrometry; IP with HSPA8 antibody from mouse testis lysate, LC-MS
[2] = target: T1, BAG5 (mouse (endogenous in mouse testis)) (UniProt Q8CI32); experiment: affinity purification with mass spectrometry; IP with BAG5 antibody from adult WT mouse testis lysate, LC-MS; Bag5 KO testes as negative control
T1 sequence: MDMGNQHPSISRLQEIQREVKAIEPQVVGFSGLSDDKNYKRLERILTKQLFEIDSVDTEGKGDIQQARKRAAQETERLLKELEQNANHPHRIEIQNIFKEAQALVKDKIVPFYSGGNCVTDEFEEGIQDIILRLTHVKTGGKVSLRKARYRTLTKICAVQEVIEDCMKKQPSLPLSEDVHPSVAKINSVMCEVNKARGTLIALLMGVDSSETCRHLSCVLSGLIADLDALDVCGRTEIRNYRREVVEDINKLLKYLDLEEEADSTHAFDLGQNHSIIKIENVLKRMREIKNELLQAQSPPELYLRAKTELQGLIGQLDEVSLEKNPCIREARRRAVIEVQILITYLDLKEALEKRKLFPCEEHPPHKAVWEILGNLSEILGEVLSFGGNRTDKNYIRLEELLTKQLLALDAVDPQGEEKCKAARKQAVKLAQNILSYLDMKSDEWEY

Row | Substance | binding [1] | binding [2]
1 | DYNLT1 (from UniProt P51807 1-113) | binds | binds
2 | MYO5A (from UniProt Q99104 1-1853) | binds | binds

Results are given in words; binding and its absence hold for the method and conditions named. In cells and extracts the contact can be indirect. A yes stands for co-enrichment or nearness to the bait. Other partners may have been found.
